## Library screen at single concentrations

Protein sequences, listed by entry. Tags and fused reporters are not part of them.
UniProt P9WFT3, whole entry: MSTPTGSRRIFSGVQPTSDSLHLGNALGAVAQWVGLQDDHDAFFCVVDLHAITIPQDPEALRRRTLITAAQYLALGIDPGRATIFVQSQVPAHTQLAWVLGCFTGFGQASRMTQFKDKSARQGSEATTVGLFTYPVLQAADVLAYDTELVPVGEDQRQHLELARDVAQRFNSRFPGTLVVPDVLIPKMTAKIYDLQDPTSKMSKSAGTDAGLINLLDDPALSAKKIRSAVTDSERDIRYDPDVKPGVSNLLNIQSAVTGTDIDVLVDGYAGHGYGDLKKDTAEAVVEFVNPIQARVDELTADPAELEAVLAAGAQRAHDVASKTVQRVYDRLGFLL
UniProt P9WNZ1, whole entry: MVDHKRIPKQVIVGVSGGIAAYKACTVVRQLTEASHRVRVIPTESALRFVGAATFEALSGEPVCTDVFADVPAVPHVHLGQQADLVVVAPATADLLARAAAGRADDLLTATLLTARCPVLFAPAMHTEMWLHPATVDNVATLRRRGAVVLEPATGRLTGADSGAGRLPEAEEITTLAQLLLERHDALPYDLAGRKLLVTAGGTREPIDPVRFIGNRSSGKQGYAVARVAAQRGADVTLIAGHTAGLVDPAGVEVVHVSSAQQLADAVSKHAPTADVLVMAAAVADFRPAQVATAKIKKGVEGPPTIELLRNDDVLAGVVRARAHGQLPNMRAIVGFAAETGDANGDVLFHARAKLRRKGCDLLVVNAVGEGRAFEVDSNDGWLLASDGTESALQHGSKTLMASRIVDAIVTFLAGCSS

Source: ChEMBL document CHEMBL3988442, “University of Dundee, Small-Polar-MMV Screening Library” (2021).

MtTrpRS: 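Tryptophan-tRNA ligase, Mycobacterium tuberculosis (UniProt P9WFT3). Enzyme assay of tryptophanyl-tRNA synthetase; the read-out is not stated. Compounds at 10 µM. Direction is not recorded; retested compounds ran higher, which suggests that high means inhibition. Size under these conditions: about 65,000 compounds, about 64 of them at 50% or above in at least one test.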
CoaBC: 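Enzyme assay of CoaBC with a phosphate dye (Biomol Green) read at 650 nm. Target: Coenzyme A biosynthesis protein CoaBC, Mycobacterium tuberculosis (UniProt P9WNZ1). Tested at 30 µM. Direction is inferred from only a few compounds that gave an IC50; most scored high, so higher reads as stronger inhibition. Most strong results did not repeat in a second test. Size under these conditions: about 67,000 compounds, about 40 of them at 50% or above in at least one test.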

Values are the deposited “Percent Effect”, in %. The record does not define 0% and 100%; most values in the screen are far below 50% and negative numbers occur (in some assays of this library far below -100). Compounds were drawn at random from those tested, without regard to their results.

* CC(C)(C)C(=O)N1C[C@H](c2ccsc2)[C@H]2CN(Cc3cccs3)CC[C@H]21 | MtTrpRS: 1.583%; CoaBC: 5.628%
* Cn1ccc(NC(=O)Cc2ccccc2F)n1 | MtTrpRS: -1.214%; CoaBC: -5.208%
* CS(=O)(=O)N1CCCC(C(=O)Nc2cnn(COCC(F)(F)F)c2)C1 (stereo not given) | CoaBC: -1.84%
* CCc1n[nH]c(C(=O)NCCn2nccc2C)c1C | MtTrpRS: -3.825%; CoaBC: 1.632%
* O=C(Nc1cc(C(F)(F)F)c[nH]c1=O)C1CCCCN1 (stereo not given) | MtTrpRS: 6.592%; CoaBC: 1.823%
* CCn1cnnc1CN(C)c1nccc(C2CCCC2)n1 | MtTrpRS: 5.21%; CoaBC: -2.581%
* CCc1ccc2nc(-c3cnn(C)c3)cc(C(=O)N3CCOCC3)c2c1 | MtTrpRS: 2.78%; CoaBC: 6.651%
* CCN(CC)C(=O)[C@@H]1C[C@@H](NC(=O)c2ccn(C(C)(C)C)c2)CN1C | MtTrpRS: -2.74%; CoaBC: 4.327%
* O=C(Cc1ccc2c(c1)OCCO2)NC1CCN(CC(F)F)CC1 | MtTrpRS: 2.158%; CoaBC: 2.651%
* Cc1ncsc1CN1CC[C@H]2OCC[C@@]2(C(=O)NC(C)C)C1 | MtTrpRS: 7.166%; CoaBC: 2.155%
* COc1ccc(OC)c(NC(=O)c2cc3c([nH]c2=O)CCCC3=O)c1 | MtTrpRS: 2.039%; CoaBC: 3.132%
* OC1CCCOC12CCN(CCCOc1ccccc1F)CC2 (stereo not given) | MtTrpRS: -2.111%; CoaBC: 15.29%
* CN(C)CCN(Cc1ccc(Cl)cc1)C(=O)c1cnccn1 | MtTrpRS: 1.852%; CoaBC: -19.87%
* COc1ccc(Cn2c(CCc3c(C)n[nH]c3C)n[nH]c2=O)cc1 | MtTrpRS: 2.234%; CoaBC: 7.356%
* Cc1ccc(CS(=O)(=O)CC(=O)NCCCOC(C)C)cc1 | MtTrpRS: -5.366%; CoaBC: 3.345%
* O=C(Cc1cccc(F)c1)NCCCNC(=O)c1cccc(O)c1 | MtTrpRS: 0%; CoaBC: 7.097%
* CCc1cc(O)n2nc(C3CCCN3C(=O)c3ccccn3)cc2n1 (stereo not given) | MtTrpRS: 5.277%; CoaBC: -8.138%
* Cc1ccccc1N1CCN(C(=O)c2cccnc2-n2cncn2)CC1 | MtTrpRS: -0.7936%; CoaBC: 1.603%
* Cc1cc(C)n(-c2ccc(CNCc3ccc(F)c(F)c3)cn2)n1 | MtTrpRS: 13.12%; CoaBC: 7.224%
* Cc1cc(NC(=O)Cc2ccc3c(c2)OCO3)n(C)n1 | MtTrpRS: -0.9709%; CoaBC: 1.928%
* Cc1cc(C(=O)N2C[C@@H](CN(C)CCN(C)C)[C@@H](CO)C2)nc(C)n1 | MtTrpRS: -1.891%; CoaBC: 0.8589%
* CC(C)CS(=O)(=O)N1C[C@H]2C[C@H](C(=O)N3CCN(C)CC3)[C@@H](C1)O2 | CoaBC: 1.22%
* CC(C)NC(=O)N1CCOC2(CCNCC2)C1 | MtTrpRS: 8.488%; CoaBC: 4.835%
* CC(C)Nc1nc2c(s1)C(=O)CN(C(=O)NCCc1ccccc1)C2 | CoaBC: 4.217%
* CCS(=O)(=O)N1CCC2(CCN(Cc3nccs3)CC2)CC1 | MtTrpRS: 14.09%; CoaBC: 6.762%
* Cc1ncsc1C(=O)NCc1cccnc1N(C)CCc1ccccn1 | MtTrpRS: 3.469%; CoaBC: 4.481%
* CN1CCC(Cc2cc(Nc3ccccn3)ncn2)CC1 | CoaBC: -1.225%
* Cc1nc(COC[C@@H]2CC[C@H]3[C@H](CCN3c3ncccn3)O2)cs1 | MtTrpRS: 0.3524%; CoaBC: 9.585%
* c1ccc(CCCN2CCCC2Cn2cncn2)cc1 (stereo not given) | MtTrpRS: -0.05679%; CoaBC: -4.558%
* COC(=O)CN(CC1CCOC1)C1CC1 (stereo not given) | MtTrpRS: -4.117%; CoaBC: 7.563%
* C[C@@H]1CN(CC(C)(C)N2CCCCC2)C[C@@]1(O)C1CC1 | MtTrpRS: 1.729%; CoaBC: 3.614%
* O=C1CC[C@H](C(=O)N(CCc2ccccc2)C2CCOC2)N1 (stereo not given in full) | MtTrpRS: -0.55%; CoaBC: 1.789%
* Cc1csc(C2(NCc3csc(C4CC4)n3)CCCC2)n1 | MtTrpRS: 3.583%; CoaBC: -4.826%
* Cn1nccc1C(=O)N1C[C@@H]2CC[C@H](Oc3cccc(F)c3)[C@@H]2C1 | CoaBC: -0.6196%
* CNC(=O)C1(c2cnccn2)CCCN1C(=O)c1ccccc1C (stereo not given) | CoaBC: 2.451%
* O=S(=O)(c1ccccc1Cl)N1CCc2nc(C3CCNCC3)ncc2C1 | MtTrpRS: 1.583%; CoaBC: 6.937%
* COc1cccc(-c2noc(-c3ccc(NCCCN)nc3)n2)c1OC | MtTrpRS: -5.093%; CoaBC: 3.856%
* Fc1ccccc1C(CNc1ccncn1)N1CCCC1 (stereo not given) | MtTrpRS: 0.712%; CoaBC: -0.9639%
* CN(CCn1cccn1)S(=O)(=O)N1CCCC1c1ccco1 (stereo not given) | MtTrpRS: -0.8746%; CoaBC: 4.722%
* CCCNC(=O)[C@@H]1CCCN1[C@@H](C(=O)NC)C1CC1 | MtTrpRS: 1.581%; CoaBC: -13.32%
* COc1cccc([C@@]2(O)CC[C@@H]3CN(C(=O)c4cn(C)nc4C)C[C@@H]32)c1 | MtTrpRS: -3.958%; CoaBC: 0.4932%
* CCOc1ccnc(NCc2nc(C)cc(C(F)(F)F)n2)n1 | MtTrpRS: 0.149%; CoaBC: 8.557%
* COc1cccc(-c2nc(C)c(C(=O)NCCC(=O)O)s2)c1 | MtTrpRS: -21.08%; CoaBC: 1.768%
* Cc1n[nH]c(C)c1C1COCCN1C(=O)c1ccc(Cl)o1 (stereo not given) | MtTrpRS: 5.882%; CoaBC: -2.368%
* Cc1cc(NCCS(C)(=O)=O)n2nc(C)cc2n1 | MtTrpRS: 4.702%; CoaBC: 9.287%

Some entries from above, unchanged:

- O=C(Cc1cccc(F)c1)NCCCNC(=O)c1cccc(O)c1 | MtTrpRS: 0%; CoaBC: 7.097%
- CCOc1ccnc(NCc2nc(C)cc(C(F)(F)F)n2)n1 | MtTrpRS: 0.149%; CoaBC: 8.557%
- CCN(CC)C(=O)[C@@H]1C[C@@H](NC(=O)c2ccn(C(C)(C)C)c2)CN1C | MtTrpRS: -2.74%; CoaBC: 4.327%
- Cc1ncsc1C(=O)NCc1cccnc1N(C)CCc1ccccn1 | MtTrpRS: 3.469%; CoaBC: 4.481%
- Fc1ccccc1C(CNc1ccncn1)N1CCCC1 (stereo not given) | MtTrpRS: 0.712%; CoaBC: -0.9639%
- CC(C)NC(=O)N1CCOC2(CCNCC2)C1 | MtTrpRS: 8.488%; CoaBC: 4.835%